Measured values: patent US12234288B2 (IO Biotech ApS, priority 2018, dated 2025)
Plain letter strings leave the end groups untold.

Assay: peptide made by a vendor
Details: whole synthesis

For GFSWIKPCISSASIVYIGLR, the outcome was “Arg2-E17 could not be synthesised by routine methods”.
